# Measured values published in PubChem BioAssay AID493014 (National Center for Advancing Translational Sciences (NCATS), 2011).
# Out of some 340,000 compounds screened, about 170 (0.05%) were called active. The shares of active, inactive and inconclusive entries below differ from those in the screen. Calls follow the shape of the dose curve; as a rule, active = well fitted inhibition curve with a large enough effect in the signal ratio, with a control signal flat (not every such curve was filed as active); inconclusive = small, poorly fitted or top-dose-only effect, or effect the other way, or a change in a side signal; inactive = flat fitted curve, though single readings scatter; the % refers to the signal ratio. Potencies beside an inconclusive call are fits to weak or partial responses and may not hold up.
# Assay: qHTS Assay to Find Inhibitors of Chronic Active B-Cell Receptor Signaling;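 as to activity change, negative = inhibition: plate controls were basal doxycycline-induced cells for no effect and cells given 10 µM MG132 for full effect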
# Conditions: ABC-DLBCL IkBa-CBG/CBR reporter, luminescence ratio (green luciferase fused to IkBa over red control in TMD8 lymphoma cells), 4 h; activity change, negative = inhibition: at 46.1 µM (top of the series) unless noted
# Procedure, shortened: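 Doxycycline induced both beetle luciferases in TMD8 lymphoma cells; IKK-driven degradation limits the IkappaBalpha-fused green signal, while red luminescence normalises for cell number and nonspecific effects. Compounds tested up to 46 uM, 4 hrs.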
# Potency is read from the fitted curve at half-maximal effect.
SMILES,"activity change, negative = inhibition",Potency
CCOc1cc(N2CCOCC2)c(OCC)cc1NC(=O)CCS(=O)(=O)c1ccc(Cl)cc1,inactive: -0.847%,–
O=C(NCCO)c1ccc(Oc2ccc(C(F)(F)F)cc2[N+](=O)[O-])cc1,inconclusive: 16.2%,–
CC(C)N1CCc2c(sc(NC(=S)NC(=O)c3ccccc3)c2C#N)C1,–,"inconclusive: 23.1 µM [falling, partial curve]"
COc1ccc(-c2cc(OC(=O)c3ccc(F)cc3)c3c(C)oc(C)c3c(=O)c2)cc1,inactive: 10.3%,–
O=C(c1ccco1)N1N=C(c2ccc(Br)cc2)CC1c1ccco1 (stereo not given),inconclusive: 2.7%,–
CC(=O)OCC(=O)[C@@]12OC(C)(C)O[C@@H]1CC1C3C[C@H](F)C4=CC(=O)C=CC4(C)[C@@]3(F)C(O)CC12C (stereo not given in full),inconclusive: 1.2%,–
CCN1CCN(c2oc(-c3ccccc3C)nc2S(=O)(=O)c2ccccc2)CC1,–,"inconclusive: 32.6 µM [falling, partial curve, poor fit]"
CCOc1ccc(OCC)c(NC(=O)C2CCN(c3ncccn3)CC2)c1,inconclusive: -0.5%,–
Oc1ccc2ccccc2c1C=Nc1ccccc1,–,"inconclusive: 35.5 µM [falling, single point]"
O=C(COC(=O)C1CCN(c2ccc(C(F)(F)F)cn2)CC1)NCc1ccc(F)cc1,inconclusive: 12.1%,–
CCOc1cccc(C(=O)NNC(=O)C2C3C=CC(C3)C2C(=O)O)c1 (stereo not given),–,"inconclusive: 12.6 µM [falling, partial curve]"
CN(C)CCCN(C(=O)c1sc2ccccc2c1Cl)c1nc2ccc(F)cc2s1,inconclusive: -4.38%,–
N#C/C(=C\c1ccc(F)cc1)C(=O)Nc1ccccn1,inconclusive: 5.56%,–
COc1ccc(Cn2nnc3c(=O)[nH]c(C(=O)NCCc4ccc(F)cc4)nc32)cc1OC,inconclusive: 8.68%,–
Cc1cc(=O)oc(C)c1C(=O)NCC(C)NC(=O)c1c(C)cc(=O)oc1C (stereo not given),inconclusive: 3.17%,–
O=C(Cn1c(=O)oc2cc(S(=O)(=O)N3CCCC3)ccc21)Nc1ccc(OC(F)(F)F)cc1,–,"inconclusive: 35.5 µM [falling, single point]"
COc1ccc(-c2nc3sc(CCNC(=O)C(=O)Nc4ccc(C)cc4C)c(C)n3n2)cc1,–,"inconclusive: 22.4 µM [falling, single point]"
O=C(CC1CC2CCC1C2)N1CCN(S(=O)(=O)c2ccccc2C(F)(F)F)CC1 (stereo not given),inactive: 1.09%,–
COc1ccc(C(=O)COC(=O)CNC(=O)c2ccc(C)s2)c(OC)c1,inconclusive: 9.34%,–
CCNc1nc(NCC)nc(OCCOC(=O)COc2ccc(Cl)cc2Cl)n1,–,"inconclusive: 23.1 µM [falling, partial curve, poor fit]"

# Filtered by structure: those above containing sulfur.
SMILES,"activity change, negative = inhibition",Potency
CCOc1cc(N2CCOCC2)c(OCC)cc1NC(=O)CCS(=O)(=O)c1ccc(Cl)cc1,inactive: -0.847%,–
CC(C)N1CCc2c(sc(NC(=S)NC(=O)c3ccccc3)c2C#N)C1,–,"inconclusive: 23.1 µM [falling, partial curve]"
CCN1CCN(c2oc(-c3ccccc3C)nc2S(=O)(=O)c2ccccc2)CC1,–,"inconclusive: 32.6 µM [falling, partial curve, poor fit]"
CN(C)CCCN(C(=O)c1sc2ccccc2c1Cl)c1nc2ccc(F)cc2s1,inconclusive: -4.38%,–
O=C(Cn1c(=O)oc2cc(S(=O)(=O)N3CCCC3)ccc21)Nc1ccc(OC(F)(F)F)cc1,–,"inconclusive: 35.5 µM [falling, single point]"
COc1ccc(-c2nc3sc(CCNC(=O)C(=O)Nc4ccc(C)cc4C)c(C)n3n2)cc1,–,"inconclusive: 22.4 µM [falling, single point]"
O=C(CC1CC2CCC1C2)N1CCN(S(=O)(=O)c2ccccc2C(F)(F)F)CC1 (stereo not given),inactive: 1.09%,–
COc1ccc(C(=O)COC(=O)CNC(=O)c2ccc(C)s2)c(OC)c1,inconclusive: 9.34%,–

# (next part)

SMILES,"activity change, negative = inhibition",Potency
COc1cccc(/C=C2\SC(=S)N(N3C(=O)CCCC3=O)C2=O)c1,inconclusive: -9.63%,–
CSc1ccc(S(=O)(=O)N2CCC(C(=O)NCCc3ccccc3)CC2)cc1,inconclusive: -3.49%,–
COc1cc(NC(=O)/C=C/c2ccccc2)c(C(=O)O)cc1OC,–,"inconclusive: 22.4 µM [falling, single point]"
O=C(NNC1=Nc2ccccc2SC1)c1cccc([N+](=O)[O-])c1,inconclusive: 2.72%,–
COC(=O)c1ccc2c(=O)n(CCCCCC(=O)O)c(=S)[nH]c2c1,–,"inconclusive: 11.6 µM [falling, partial curve]"
Nc1nnc(-c2cccc(F)c2)s1,inconclusive: 7.91%,–
COc1ccc(NC(=O)CCN2C(=O)c3ccncc3C2=O)cc1OC,inconclusive: -1.17%,–
O=C(Nc1cccc(-c2nc3cc(Cl)ccc3o2)c1)c1ccc(F)cc1,inactive: 0.676%,–
COc1cccc(-c2nn(-c3ccccc3)cc2CN(C)C(C)c2ccon2)c1 (stereo not given),inactive: 4.16%,–
O=C(CCC(=O)NC1CC1)Nc1nnc(C2CCCCC2)s1,inconclusive: 9.22%,–
CC(=O)Nc1ccc(OC(=O)Cc2ccc(Cl)cc2)cc1,inactive: 0.517%,–
CCCn1nc2cc(C(=O)NC3CCCc4ccccc43)ccc2c1OCC (stereo not given),inactive: 3.18%,–
CN1CCN(CCCNC(=O)c2ccc(CS(=O)(=O)c3ccc(Br)cc3)o2)CC1,inconclusive: 15.2%,–
O=C(N/N=C/C=C\c1ccco1)c1ccccn1,–,"inconclusive: 17.8 µM [falling, partial curve]"
COc1ccc(Oc2nccc(-c3ccccc3)c2C#N)cc1,inconclusive: 9.03%,–
O=C(Nc1ccc2oc(-c3ccccc3)nc2c1)c1ccncc1,inconclusive: 1.03%,–
CN1CCN(CC(=O)Nc2ccc(OC(F)(F)F)cc2)CC1,inconclusive: 0.741%,–
C1COCCNCCOCCOCCOCCN1,inactive: -2.08%,–
C=CCNC(=S)NNC(=O)c1cccn(Cc2ccc(Cl)cc2)c1=O,inconclusive: 1.49%,–
Cc1ccc(-c2noc(CCC(=O)NCC3CCCO3)n2)cc1 (stereo not given),inconclusive: 27%,–
